Results: PubChem BioAssay AID280 (DTP/NCI, 2004)
The list does not hold the whole screen: it gathers tests that were run many times, whatever their T/C, doses with no T/C, and many T/C values between a quarter and a half above the control. Other doses and runs of a compound stand elsewhere. T/C: endpoint of the treated group in % of that of the vehicle group. Some doses have a count of surviving animals in place of a T/C: the source files T/C as zero there, which appears to mark a toxic dose or a test without result, not a measured value. Some doses without a T/C left all or most animals alive at the check, yet need not have been tolerated: survival well below the control is almost never listed, so the zero probably covers shortened survival too. Counts of survivors are from the toxicity check (mostly the fifth day) where no day follows; animals may have died later. Schedule codes are those of the source, read here as Q, the interval in days (D) or hours (H), X, the number of doses. Some entries were tested several times; the results are listed from low to high. For survival time, the PubChem record calls one and a half times the control and up active, and a quarter to a half above the control has no call in these data; cut-offs in other NCI protocols can differ. Some T/C values are followed by the survivors on the day toxicity was checked, most often the fifth; where none is given, no animal had died by that day.

Test system: nude mice, LOX melanoma ip, survival T/C
Experiment: NCI In Vivo Anticancer Drug Screen. Data for tumor model Human Amelanotic Melanoma (LOX) (intraperitoneal) in NU/NU BALB/C (nude) mice
Conditions: T/C endpoint: median survival time, higher T/C = longer survival
Protocol: The antitumor activity of compounds was measured in mice bearing transplantable tumors. Survival or tumor size were measured and the results are expressed as the measurement made in the treated group (T) divided by the measurement made in the vehicle treated control group (C). The tumor model used in this assay is Human Amelanotic Melanoma (LOX) (intraperitoneal) in NU/NU BALB/C (nude) mice

[1] = dose: 30.0 mg/kg/injection, schedule: Q01DX001 (ip), vehicle: propolene glycol
[2] = dose: 12.5 mg/kg/injection, schedule: Q04DX003 (ip), vehicle: Klucel (hydroxypropylcellulose) (HPC)
[3] = dose: 25.0 mg/kg/injection, schedule: Q04DX003 (ip), vehicle: Klucel (hydroxypropylcellulose) (HPC)
[4] = dose: 50.0 mg/kg/injection, schedule: Q04DX003 (ip), vehicle: Klucel (hydroxypropylcellulose) (HPC)
[5] = dose: 40.0 mg/kg/injection, schedule: Q04DX003 (ip), vehicle: water
[6] = dose: 1200.0 mg/kg/injection, schedule: Q04DX003 (ip), vehicle: saline with Tween-80
[7] = dose: 1200.0 mg/kg/injection, schedule: Q04DX003 (ip), vehicle: Klucel (hydroxypropylcellulose) (HPC)
[8] = dose: 600.0 mg/kg/injection, schedule: Q04DX003 (ip), vehicle: saline with Tween-80
[9] = dose: 75.0 mg/kg/injection, schedule: Q04DX003 (ip), vehicle: Klucel (hydroxypropylcellulose) (HPC)
[10] = dose: 300.0 mg/kg/injection, schedule: Q04DX003 (ip), vehicle: Klucel (hydroxypropylcellulose) (HPC)
[11] = dose: 800.0 mg/kg/injection, schedule: Q04DX003 (ip), vehicle: saline with Tween-80
[12] = dose: 100.0 mg/kg/injection, schedule: Q04DX003 (ip), vehicle: Klucel (hydroxypropylcellulose) (HPC)
[13] = dose: 200.0 mg/kg/injection, schedule: Q04DX003 (ip), vehicle: Klucel (hydroxypropylcellulose) (HPC)
[14] = dose: 400.0 mg/kg/injection, schedule: Q04DX003 (ip), vehicle: Klucel (hydroxypropylcellulose) (HPC)

In the case of CC(O)CCC(=O)c1ccoc1 (configuration not stated), the T/C [1] was 147 % of control [7 of 10 alive on day 10], the survivor count [1] was 4 of 10 on day 10 and the survivor count (dose: 50.0 mg/kg/injection, schedule: Q01DX001 (ip), vehicle: propolene glycol) was 0 of 10 on day 10 and 2 of 10 on day 10. For the same molecule, the survivor count (dose: 83.3 mg/kg/injection, schedule: Q01DX001 (ip), vehicle: propolene glycol) was 0 of 10 on day 10 and the survivor count (dose: 138.9 mg/kg/injection, schedule: Q01DX001 (ip), vehicle: propolene glycol) was 0 of 10 on day 10.
For CCS/C(SC)=C(/c1ccccc1)[P+](c1ccccc1)(c1ccccc1)c1ccccc1, the survivor count (dose: 6.25 mg/kg/injection, schedule: Q04DX003 (ip), vehicle: Klucel (hydroxypropylcellulose) (HPC)) was 4 of 6 on day 10, the survivor count [2] was 1 of 6 on day 10 and the survivor count [3] was 0 of 6 on day 10. For the same molecule, the survivor count [4] was 0 of 6 on day 10.
Cc1ccc(NN=O)nc1 was tested, and the T/C (dose: 20.0 mg/kg/injection, schedule: Q04DX003 (ip), vehicle: water) was 135 % of control and the T/C [5] was 139 % of control.
For CCC(NC(N)=O)C(CC)NC(N)=O (configuration not stated), the survivor count (dose: 12.5 mg/kg/injection, schedule: Q04DX003 (ip), vehicle: saline with Tween-80) was 6 of 6 on day 10 and the survivor count (dose: 50.0 mg/kg/injection, schedule: Q04DX003 (ip), vehicle: saline with Tween-80) was 2 of 6 on day 10.
O=C(Nc1cccc(Cl)c1)ON1C(=O)C2C(C1=O)C1(Cl)C(Cl)C(Cl)C2(Cl)C1(Cl)Cl (configuration not stated) was tested, and the survivor count [6] was 0 of 6 on day 10.
With CCOC(=O)/C=C/C(=O)N1CCN(C(=O)/C=C/C(=O)OCC)C(C)C1 (configuration not stated) the survivor count [7] was 0 of 6 on day 10.
For O=C(CCCCCCC(=O)ON1C(=O)CCC1=O)ON1C(=O)CCC1=O, the survivor count [8] was 0 of 6 on day 10 and the survivor count [6] was 0 of 6 on day 10.
In the case of Cn1cc(C2NC(=O)c3ccccc3N2)c2ccccc21 (configuration not stated), the T/C [9] was 135 % of control, the T/C (dose: 150.0 mg/kg/injection, schedule: Q04DX003 (ip), vehicle: Klucel (hydroxypropylcellulose) (HPC)) was 141 % of control and the T/C [10] was 132 % of control. For the same molecule, the T/C (dose: 600.0 mg/kg/injection, schedule: Q04DX003 (ip), vehicle: Klucel (hydroxypropylcellulose) (HPC)) was 141 % of control and the survivor count [7] was 3 of 6 on day 10.
In the case of CN1CCN(CN2C(=O)C3C4C=CC(C3C2=O)C2C3C(=O)N(CN5CCN(C)CC5)C(=O)C3C42)CC1 (configuration not stated), the survivor count (dose: 200.0 mg/kg/injection, schedule: Q04DX003 (ip), vehicle: water) was 1 of 6 on day 10.
With NC(=O)C1C=CN(Cc2ccccc2)C=C1 the survivor count (dose: 400.0 mg/kg/injection, schedule: Q04DX003 (ip), vehicle: saline with Tween-80) was 0 of 6 on day 10 and the survivor count [11] was 0 of 6 on day 10.
In the case of O=C1C2=C(C(=O)c3ncccc31)C1C=CC2CC1 (configuration not stated), the T/C (dose: 12.5 mg/kg/injection, schedule: Q04DX003 (ip), vehicle: DMSO) was 127 % of control.
In the case of CN(C)C(=O)Nc1ccc(Cl)cc1, the survivor count (dose: 1200.0 mg/kg/injection, schedule: Q04DX003 (ip), vehicle: suspension in saline) was 0 of 6 on day 10.
With O=C1c2ccccc2C(=O)c2c1cn1c2Cc2ccccc2C1 the survivor count [2] was 3 of 6 on day 10, the survivor count [3] was 6 of 6 on day 10 and the survivor count [12] was 6 of 6 on day 10. The survivor count [13] was 6 of 6 on day 10 and the survivor count [14] was 6 of 6 on day 10.
O=C1C=C(N2CC2)C(=O)C(N2CC2)=C1N1CC1 was tested, and the T/C (dose: 50.0 micrograms/kg/injection, schedule: Q04DX003 (ip), vehicle: saline) was 134 % of control, the T/C (dose: 72.0 micrograms/kg/injection, schedule: Q04DX003 (ip), vehicle: saline) was 131 % of control and the T/C (dose: 200.0 micrograms/kg/injection, schedule: Q04DX003 (ip), vehicle: saline) was 147 % of control. The survivor count (dose: 400.0 micrograms/kg/injection, schedule: Q04DX003 (ip), vehicle: saline) was 3 of 6 on day 10.
With COc1cc2c(c3c1c(=O)c1ccccc1n3C)C=CC(C)(C)O2 the survivor count [12] was 6 of 6 on day 10, the survivor count [13] was 0 of 6 on day 10 and 4 of 6 on day 10 and the survivor count [14] was 0 of 6 on day 10.
CNC(=S)SC1=NS(=O)(=O)c2ccccc2N1 was tested, and the survivor count [14] was 2 of 6 on day 10 and the survivor count (dose: 800.0 mg/kg/injection, schedule: Q04DX003 (ip), vehicle: Klucel (hydroxypropylcellulose) (HPC)) was 0 of 6 on day 10.
O=C(CCCN1CCC(C(O)c2ccc(F)cc2)CC1)c1ccc(F)cc1 (configuration not stated) was tested, and the survivor count (dose: 100.0 mg/kg/injection, schedule: Q01DX009 (ip), vehicle: saline with Tween-80) was 3 of 6 on day 10 and the survivor count (dose: 200.0 mg/kg/injection, schedule: Q01DX009 (oral), vehicle: saline with Tween-80) was 4 of 6 on day 10.
COc1cc2c(c(OC)c1O)-c1ccc(OC)c(=O)cc1[C@@H](NC(=O)C(F)(F)F)CC2 was tested, and the T/C (dose: 5.0 mg/kg/injection, schedule: Q04DX003 (ip), vehicle: Klucel (hydroxypropylcellulose) (HPC)) was 139 % of control, the T/C (dose: 10.0 mg/kg/injection, schedule: Q04DX003 (ip), vehicle: Klucel (hydroxypropylcellulose) (HPC)) was 133 % of control and the T/C (dose: 20.0 mg/kg/injection, schedule: Q04DX003 (ip), vehicle: Klucel (hydroxypropylcellulose) (HPC)) was 133 % of control. For the same molecule, the T/C (dose: 40.0 mg/kg/injection, schedule: Q04DX003 (ip), vehicle: Klucel (hydroxypropylcellulose) (HPC)) was 126 % of control [4 of 6 alive on day 10].
c1ccc(OCC2CO2)c(OCC2CO2)c1 (configuration not stated) was tested, and the T/C (dose: 150.0 mg/kg/injection, schedule: Q04DX003 (ip), vehicle: saline with Tween-80) was 141 % of control and the survivor count [8] was 1 of 6 on day 10.
In the case of O=C1CNC(=O)N1CN1CCOCC1, the T/C [9] was 132 % of control, the T/C [10] was 145 % of control and the T/C [7] was 139 % of control [5 of 6 alive on day 10].
COc1ccc2oc3c(ccc[n+]3C)c(=O)c2c1 was tested, and the survivor count [11] was 1 of 6 on day 10.
COc1cc2c(cc1OC)-c1c3c(cc4c1[C@@H](C2)N(C)CC4)OCO3 was tested, and the T/C (dose: 54.0 mg/kg/injection, schedule: Q04DX003 (ip), vehicle: distilled water + Tween-80 + alcohol) was 132 % of control and the survivor count (dose: 250.0 mg/kg/injection, schedule: Q04DX003 (ip), vehicle: distilled water + Tween-80 + alcohol) was 1 of 6 on day 10.
In the case of COc1ccc(OC)c(Cc2cnc3nc(N)nc(N)c3c2C)c1, the survivor count (dose: 120.0 mg/kg/injection, schedule: Q04DX003 (ip), vehicle: water) was 2 of 6 on day 10, the survivor count (dose: 150.0 mg/kg/injection, schedule: Q04DX003 (ip), vehicle: water) was 2 of 6 on day 10 and the survivor count (dose: 300.0 mg/kg/injection, schedule: Q04DX003 (ip), vehicle: water) was 1 of 6 on day 10. The survivor count (dose: 600.0 mg/kg/injection, schedule: Q04DX003 (ip), vehicle: water) was 0 of 6 on day 10.
With [NH-]C(CCC(N)=O)C(=O)O.[NH-]C(CCC(N)=O)C(=O)O.[Zn+2] (configuration not stated) the survivor count (dose: 100.0 mg/kg/injection, schedule: Q04DX003 (ip), vehicle: saline with Tween-80) was 2 of 6 on day 10 and the survivor count (dose: 200.0 mg/kg/injection, schedule: Q04DX003 (ip), vehicle: saline with Tween-80) was 0 of 6 on day 10.
CCC(=O)[O][Bi]([c]1ccccc1)[c]1ccccc1 was tested, and the survivor count [4] was 3 of 6 on day 10.
With N[C@@H](Cc1ccc(N(CCCl)CCCl)cc1)C(=O)O the survivor count (dose: 8.0 mg/kg/injection, schedule: Q01DX015 (ip), vehicle: water) was 6 of 6 on day 10, the survivor count (dose: 16.0 mg/kg/injection, schedule: Q01DX005 (ip), vehicle: water) was 5 of 6 on day 10 and the survivor count (dose: 16.0 mg/kg/injection, schedule: Q01DX015 (ip), vehicle: water) was 2 of 6 on day 10. The survivor count (dose: 40.0 mg/kg/injection, schedule: Q01DX001 (ip), vehicle: water) was 0 of 6 on day 10 and the survivor count [5] was 0 of 6 on day 10.
